Results: patent publication US8278327B2, “PDE10 inhibitors and related compositions and methods” (Omeros Corporation, priority 2006, dated 2012)
For at least one compound, name, drawing or mass did not settle the structure.

Legend:
C57BL/6 male mice [1] = test: Amphetamine-induced hyperactivity; format: in vivo; conditions: 0.2 mg/kg i.p., amphetamine 2 mg/kg, vs vehicle+amph control, p<0.05
C57BL/6 male mice [2] = test: Novel object recognition test (PCP-disrupted); format: in vivo; conditions: 1 mg/kg with PCP 5 mg/kg, tested 24 h later
Experimental: The antipsychotic effect of a test compound may also be evaluated by a novel object recognition test. In a novel object recognition test, mice are housed singly for 1-2 days and then injected with vehicle, PCP, or PCP plus the test compound. Twenty minutes after injection, the mice are presented with and allowed to explore two identical objects for 30 minutes. At the end of the exploration period the objects are removed. Twenty-four hours later each mouse is presented with a pair of objects, one familiar and one novel. After a variable delay, the mice begin to explore the objects. The time exploring each object is measured for 4 minutes starting from the first approach to either object. The fraction of total exploration time spent studying the novel object is recorded as a measure of novelty recognition.
At the end of the exploration period, the objects were removed. Twenty-four hours later, each mouse was presented with a pair of objects, one familiar and one novel, and the time exploring each object was measured for 4 minutes starting from the first approach to either object.

C57BL/6 male mice [3] = test: PCP-induced hyperactivity; format: in vivo; conditions: 0.2 mg/kg i.p., PCP 5 mg/kg, vs vehicle+PCP control, p<0.001
Experimental: Psychostimulant-induced hyperactivity is measured by injecting animals with PCP or amphetamine and monitoring the animals' activity levels in the VersaMax chambers (Accuscan Instruments, Columbus, Ohio) measuring 40×40 cm. Locomotor activity is detected by photobeam breaks as the animal crosses each beam. The animal is placed in the center of the field and left undisturbed for a period of time (20 min to 2 hr) to measure its spontaneous activity in a novel environment. Measurements used to assess locomotor activity include: horizontal activity, total distance traveled, vertical activity (rearing events—animal raises up on hindlimbs), rotation, stereotypy, and distance traveled in the center compared to total distance traveled (center:total distance ratio). Psychostimulants, including dopamine agonist amphetamine and NMDA antagonist PCP, induce psychosis-like conditions manifested as hyperactivity and increased stereotypic behavior. Known antipsychotics are able to reverse psychostimulant-induced hyperactivity and increased stereotypy.

C57BL/6 male mice [4] = conditions: 3 mg/kg i.p., 30 min after injection, vs vehicle control, p<0.05
C57BL/6 male mice [5] = test: Conditioned avoidance response (CAR); format: in vivo; conditions: 0.45 mg/kg i.p., tested 20 min later, 30 trials, p<0.01
Text: Conditioned avoidance response (CAR) is a behavioral test to evaluate antipsychotic effect of a test compound. It utilizes a shuttle box (Med Associates, St. Albans, Vt.) with two equal chambers separated by a retractable door. Each chamber is fitted with metal grid floor that is capable of delivering electric shocks independently. A computer program is used to implement the testing paradigm as well as record the animal's movement between the two chambers through infrared beam sensors. The testing paradigm is as the follows. A mouse is placed into one chamber. A light (conditioned stimulus, CS) comes on. Five seconds later, mild electric shocks (0.4 mA) (unconditioned stimulus, US) are delivered to the chamber where the mouse is located (as detected by infrared beams) until the mouse escapes to the adjacent chamber or until 10 sec has elapsed. The US and CS always co-terminate. […]
C57BL/6 male mice were trained in the CAR paradigm to predict and avoid the noxious stimulus, reaching a plateau of approximately 20-25 avoidance responses per 30 trials (“training plateau”) each day. […] Vehicle treatment and compound treatment were given to the same animals on alternating days, and the effect of compound in reducing avoidance response was analyzed through within-subject comparison (paired t-test).

## Cc1cc2c(s1)Nc1ccccc1N=C2N1CCN(C)CC1 [olanzapine, reference compound]
C57BL/6 male mice [1]
  hyperactivity induced by amphetamine: partially but significantly reduce
  stereotypy induced by amphetamine: partially but significantly reduce
C57BL/6 male mice [2]
  novel object recognition performance: unable to restore
C57BL/6 male mice [3]
  hyperactivity induced by PCP: significantly reduce
  stereotypy induced by PCP: significantly reduce
C57BL/6 male mice [4]
  PPI at 3 different prepulse levels: increases
  startle response: significantly decreases
C57BL/6 male mice [5]
  number of avoidance response: significantly reduces
